Measured values from the supplement of paper PMC12578635.
The other results are listed elsewhere or left out. No stated cut-off is given here; in the data, active = 150% or more and inactive = the rest. Single values are uncertain, as repeats are few or missing.

Each compound was assayed on Staphylococcus aureus JE2-lux inside RAW 264.7 macrophages (assay: intracellular bacterial bioluminescence relative to DMSO vehicle; higher = higher intracellular bacterial metabolic activity). Conditions: 10 µM; treatment time 4 h; gentamicin 50 µg/ml.
Description: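 RAW 264.7 macrophages infected with bioluminescent MRSA JE2-lux (MOI 100) were dispensed into 384-well plates with 10 µM compound in the presence of 50 µg/ml gentamicin. After 4 h at 37 °C, bacterial bioluminescence (a proxy for intracellular bacterial metabolic activity) and host cell viability (CellTiter-Fluor) were read and normalised to 0.1% DMSO vehicle controls. Single-pass screen of the UNC CICBDD kinase-targeted library (>4,700 compounds).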

Intracellular bacterial bioluminescence, inactive:
Cc1cccc(NC(=O)c2sc3nc(-c4ccc(F)cc4)cn3c2C)c1C 100%
Cc1nnc2ccc(-n3ncc4c3NC(=O)CC4c3ccc(OCc4ccc(F)cc4)cc3)nn12 (stereo not drawn) 94.5%
Cc1ccc(NC(=O)CN2C(=O)/C(=C\c3cccs3)SC2=S)cc1C 122%
CC12CC(NC(=O)N1c1cccc(F)c1)c1cc([N+](=O)[O-])ccc1O2 (stereo not drawn) 16.6%
COc1ccc(OC)c(NC(=O)CSc2nc3ccccc3c(=O)n2C)c1 62.8%
Cc1nn(-c2ccc3nncn3n2)c(C)c1Sc1nnc(N)s1 93.1%
O=C(CSc1nc(=O)n2ccccc2n1)N1CCc2ccccc21 58.3%
Cc1[nH]c2nc(CNc3ccccc3F)nn2c(=O)c1Cc1ccccc1 86.3%
CCN(C(=O)c1cccs1)c1nc2c(s1)CCc1occc1-2 89.4%
O=C(O)CCCCCN1C(=O)/C(=C/c2c(NCc3ccco3)nc3ccccn3c2=O)SC1=S 78.2%
O=C(NCCCN1CCCC1=O)c1ncoc1-c1ccc(F)cc1 75.9%
O=C(NCC1COC2(CCCCC2)O1)Nc1ccc(Cl)cc1 (stereo not drawn) 104%
CCOc1ccc(-c2cc(C(=O)Nc3cc(C)on3)no2)cc1 99.3%
CC(=O)Nc1ccc(Nc2nc3c(S(=O)(=O)c4cc(C)ccc4C)nnn3c3ccsc23)cc1 94.6%
COc1cc(C(=O)Oc2coc(CSc3nc(C)cc(C)n3)cc2=O)c([N+](=O)[O-])cc1OC 115%
Cc1cccc(OCCCN2C(=O)C(=O)c3cc(Br)cc(C)c32)c1 107%
O=C1NC(=O)c2cc(S(=O)(=O)N(CCO)CCO)cc3cccc1c23 103%
CC(C)N1CCn2c(nc3cc(NS(C)(=O)=O)ccc32)C1 103%
COc1cc(/C=N/n2cnnc2)ccc1OC(=O)c1ccncc1 135%
CC(=O)c1cccc(NC(=O)CSc2nc(=O)n(N3CCN(C)CC3)c3c2CCCC3)c1 85.8%
N#Cc1c(NC(=O)c2nc3ccccc3s2)sc2c1CCN(Cc1ccccc1)C2 91%
CC(=O)c1[nH]c(C)c(C(=O)NCCn2nc3c(C)cc4ccc(C)cc4n3c2=O)c1C 144%
O=C(CSc1nnc2[nH]c(=O)ccn12)Nc1ccc(Br)cc1 107%
O=C(CSc1ncnc2c1oc1ccccc12)Nc1ccc([N+](=O)[O-])cc1 108%
O=C(COC(=O)c1cc(O)nc2ccccc12)c1ccc(Cl)cc1 102%
O=C1c2ccncc2C(=O)N1CNc1ccc(Br)cc1 96.2%
CCCCC(=O)N1CCN(c2nn3c(NC(C)(C)C)c(-c4cccc(C)c4)nc3s2)CC1 104%
COc1ccc2cc(CN(C)Cc3n[nH]c4c3CCCC4)c(OC)nc2c1 71%
Cc1ccc(CNC(=O)c2cnc3c(c(C)nn3-c3ccccc3)c2NCc2ccc(Cl)cc2)o1 77.5%
CCC(=O)Nc1nc(-c2ccc3c(c2)OCCO3)cs1 98%
O=C(CN1C(=O)CC(c2ccccc2)Sc2ccccc21)Nc1ccc(F)cc1F (stereo not drawn) 65.6%
CCc1nc(-c2csc(S(=O)(=O)N3CCC(C(=O)N4CCc5ccccc5C4)CC3)c2)no1 65%
O=C(OCn1nnc2ccccc2c1=O)c1cccs1 89.2%
COc1ccc(CC(=O)N2CCC(c3nnc(C(=O)Nc4ccccc4C)s3)CC2)cc1OC 50.5%
O=C(CSc1nc(-c2ccccc2Cl)ns1)Nc1nccs1 52.9%
O=C(/C=C/c1ccc2c(c1)OCO2)NCCc1csc2nc(-c3ccc(F)cc3)nn12 75.8%
COc1cccc(C2C3=C(CCCC3=O)Nc3nc(SC(C)C)[nH]c(=O)c32)c1 (stereo not drawn) 108%
CCOc1ccc(NC(=O)CN2C(=O)C(c3ccc(OC)cc3)=NC23CCCCC3)cc1 56%
N#Cc1ccc(CSc2ncccc2C(=O)O)cc1 116%
COc1ccc(CCn2c(C)c(C)n3c4c(=O)n(CC(N)=O)c(=O)n(C)c4nc23)cc1OC 124%
Cc1ccc(NC(=O)CSCC(=O)NCC2OCCc3ccccc32)cc1C (stereo not drawn) 78.1%
Cc1ccc(-c2nc(CCNC(=O)CCc3cc(Cl)no3)n[nH]2)cc1 115%
COc1cc(OC)c(NC(=O)C(C)Sc2nnc(-c3ccncc3)o2)cc1Cl (stereo not drawn) 84.7%
N#Cc1c(N)nc(SCc2ccccc2)c(C#N)c1C1CCCCC1 34%
CC1=C(C(=O)OCc2ccccc2)C(c2cccc(Br)c2)NC(=S)N1 (stereo not drawn) 55.9%
Cc1cccc(C)c1NC(=O)C(C)n1cnc2onc(-c3ccc(Cl)cc3)c2c1=O (stereo not drawn) 126%
CC(=O)Nc1ccc2c(=O)cc(-c3ccccc3F)oc2c1 149%
Cc1ccc(-c2nc3n(CC(=O)Nc4ccc(Br)cc4)c4c(c(=O)n3n2)CCC4)cc1 80.9%
O=C(CSc1nc(=O)n2cc(Cl)ccc2n1)NC1CCCCC1 57.1%
O=C(COc1ccc2ccccc2c1)NCC1COC2(CCCC2)O1 (stereo not drawn) 65.6%
Cc1c(C(=O)NC(c2ccccc2)c2cccnc2)[nH]c2ccccc12 (stereo not drawn) 98.2%
O=C(NCCC1=CCCCC1)C(=O)Nc1ccc(F)c(F)c1 109%
Cc1cc(=O)[nH]c2ccc(S(=O)(=O)Nc3ccc(Br)cc3)cc12 95.9%
Cc1cc(F)ccc1S(=O)(=O)Oc1ccc2oc3ccccc3c2c1 106%
O=c1n(Cn2nnc3ccccc32)nc(C(F)(F)F)c2cccn12 123%
Cc1cc(C)n2nc(C(=O)NCc3ccc(N4CCCC4=O)cc3)cc2n1 130%
CC(=O)c1ccc(Nc2nc3c(S(=O)(=O)c4ccccc4)nnn3c3ccc(Cl)cc23)cc1 96.3%
Cc1cc(C)c(NS(=O)(=O)c2ccc3c4c(cccc24)C(=O)N3)c(C)c1 81.3%

An excerpt from further up, for reference:
Intracellular bacterial bioluminescence, inactive:
O=C(OCn1nnc2ccccc2c1=O)c1cccs1 89.2%
COc1ccc(CC(=O)N2CCC(c3nnc(C(=O)Nc4ccccc4C)s3)CC2)cc1OC 50.5%
O=C(CSc1nc(-c2ccccc2Cl)ns1)Nc1nccs1 52.9%
O=C(/C=C/c1ccc2c(c1)OCO2)NCCc1csc2nc(-c3ccc(F)cc3)nn12 75.8%
COc1cccc(C2C3=C(CCCC3=O)Nc3nc(SC(C)C)[nH]c(=O)c32)c1 (stereo not drawn) 108%
